The list shows a part of the results.
Legend:
Experiment in all cases: log2 fold change, soluble protein after heating vs DMSO (PISA); higher = thermal stabilisation; K562 cells, 10 uM, 30 min; active = over 0.2 and 3.5 SD of the protein, either way, in both replicates (recomputed)
[1] = compound: C1=CC=C(C=C1)[C@H](COC2=CC3=C(C=C2)NC(=O)N3)NC(=O)C4=CC=CN(C4=O)CC5=CC(=C(C=C5)F)F
Method in brief: (§1)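 K562 cells at 2×10^6 cells/mL were treated with 10 μM compound for 30 min. Aliquots were heated for 3 min across 48°C-58°C, pooled, and extracted in PBS with 0.5% NP-40 at 4°C; soluble protein was the supernatant after 21,000xg for 90 min. Soluble protein was quantified by TMTpro 16plex LC-MS/MS with channel sums equalised, and reported as log2 fold change in thermal stability against DMSO controls, with values from duplicates.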

Protein sequences, listed by entry. Tags and fused reporters are not part of them. Lines headed by an entry give the natural chain unless they say otherwise; changes in a name come on top.
UniProt P09669, whole entry, looked up: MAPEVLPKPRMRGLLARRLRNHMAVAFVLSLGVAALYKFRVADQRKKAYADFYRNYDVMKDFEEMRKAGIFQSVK
UniProt P53618: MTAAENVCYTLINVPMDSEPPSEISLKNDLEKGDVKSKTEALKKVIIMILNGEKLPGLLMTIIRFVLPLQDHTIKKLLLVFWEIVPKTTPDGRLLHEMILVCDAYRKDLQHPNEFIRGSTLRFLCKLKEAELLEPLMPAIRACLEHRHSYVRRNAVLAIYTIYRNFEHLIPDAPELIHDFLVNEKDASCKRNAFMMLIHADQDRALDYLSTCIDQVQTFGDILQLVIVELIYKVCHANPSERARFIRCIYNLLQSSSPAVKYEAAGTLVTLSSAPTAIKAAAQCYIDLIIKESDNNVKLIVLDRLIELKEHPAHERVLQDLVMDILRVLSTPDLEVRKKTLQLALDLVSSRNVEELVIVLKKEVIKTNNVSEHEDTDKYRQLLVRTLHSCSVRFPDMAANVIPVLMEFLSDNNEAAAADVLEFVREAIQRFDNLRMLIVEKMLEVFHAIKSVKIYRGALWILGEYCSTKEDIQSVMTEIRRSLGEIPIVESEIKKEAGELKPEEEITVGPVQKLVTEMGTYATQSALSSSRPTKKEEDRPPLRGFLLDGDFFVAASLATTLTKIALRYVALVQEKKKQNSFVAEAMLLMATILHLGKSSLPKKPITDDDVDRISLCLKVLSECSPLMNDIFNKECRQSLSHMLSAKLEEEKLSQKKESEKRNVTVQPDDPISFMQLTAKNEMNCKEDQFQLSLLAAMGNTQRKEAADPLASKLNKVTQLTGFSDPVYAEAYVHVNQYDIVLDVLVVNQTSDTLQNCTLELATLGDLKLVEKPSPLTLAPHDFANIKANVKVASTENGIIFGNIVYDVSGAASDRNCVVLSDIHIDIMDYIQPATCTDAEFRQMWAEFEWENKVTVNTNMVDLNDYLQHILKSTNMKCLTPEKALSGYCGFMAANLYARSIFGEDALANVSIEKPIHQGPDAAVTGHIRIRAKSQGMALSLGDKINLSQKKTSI
UniProt P12109: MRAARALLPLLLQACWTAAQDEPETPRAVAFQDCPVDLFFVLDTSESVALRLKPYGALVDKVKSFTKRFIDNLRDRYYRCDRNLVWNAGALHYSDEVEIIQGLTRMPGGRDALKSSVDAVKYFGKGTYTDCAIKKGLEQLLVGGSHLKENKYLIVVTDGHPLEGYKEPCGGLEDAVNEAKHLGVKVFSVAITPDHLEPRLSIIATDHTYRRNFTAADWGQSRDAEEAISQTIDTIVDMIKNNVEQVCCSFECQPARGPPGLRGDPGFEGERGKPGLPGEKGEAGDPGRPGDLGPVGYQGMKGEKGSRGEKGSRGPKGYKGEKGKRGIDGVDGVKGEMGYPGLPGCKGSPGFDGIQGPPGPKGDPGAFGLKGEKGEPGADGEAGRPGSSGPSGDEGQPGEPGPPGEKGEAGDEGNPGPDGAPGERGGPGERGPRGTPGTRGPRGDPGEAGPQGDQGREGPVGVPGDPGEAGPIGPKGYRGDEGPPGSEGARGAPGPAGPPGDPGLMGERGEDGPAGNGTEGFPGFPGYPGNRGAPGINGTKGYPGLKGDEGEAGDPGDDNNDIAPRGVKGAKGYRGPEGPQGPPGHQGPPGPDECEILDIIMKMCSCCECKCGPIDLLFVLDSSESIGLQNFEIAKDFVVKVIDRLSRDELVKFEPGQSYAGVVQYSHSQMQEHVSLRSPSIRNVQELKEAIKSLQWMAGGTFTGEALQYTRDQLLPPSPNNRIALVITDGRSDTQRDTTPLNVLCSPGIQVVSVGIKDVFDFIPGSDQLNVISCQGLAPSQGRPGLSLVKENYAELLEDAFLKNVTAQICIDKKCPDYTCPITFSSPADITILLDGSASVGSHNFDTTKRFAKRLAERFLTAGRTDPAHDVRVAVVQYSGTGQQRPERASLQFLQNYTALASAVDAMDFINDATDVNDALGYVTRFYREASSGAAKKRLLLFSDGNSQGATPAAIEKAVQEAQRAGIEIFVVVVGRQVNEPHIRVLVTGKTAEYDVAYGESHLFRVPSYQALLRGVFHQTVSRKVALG
UniProt Q7KZN9: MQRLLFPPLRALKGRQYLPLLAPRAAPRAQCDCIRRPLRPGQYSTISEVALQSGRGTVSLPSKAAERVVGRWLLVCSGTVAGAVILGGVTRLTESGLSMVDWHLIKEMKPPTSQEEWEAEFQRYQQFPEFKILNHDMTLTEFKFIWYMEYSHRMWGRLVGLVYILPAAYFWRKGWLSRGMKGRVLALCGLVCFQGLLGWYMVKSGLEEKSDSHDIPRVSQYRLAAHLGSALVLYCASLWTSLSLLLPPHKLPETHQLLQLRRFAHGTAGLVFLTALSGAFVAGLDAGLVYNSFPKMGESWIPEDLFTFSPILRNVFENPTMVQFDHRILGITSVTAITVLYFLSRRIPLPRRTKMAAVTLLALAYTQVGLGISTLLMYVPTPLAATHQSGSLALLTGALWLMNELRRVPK
UniProt P24311, whole entry, looked up: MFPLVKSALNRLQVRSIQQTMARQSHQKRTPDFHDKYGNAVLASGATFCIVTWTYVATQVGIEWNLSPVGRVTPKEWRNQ
UniProt A4D0V7: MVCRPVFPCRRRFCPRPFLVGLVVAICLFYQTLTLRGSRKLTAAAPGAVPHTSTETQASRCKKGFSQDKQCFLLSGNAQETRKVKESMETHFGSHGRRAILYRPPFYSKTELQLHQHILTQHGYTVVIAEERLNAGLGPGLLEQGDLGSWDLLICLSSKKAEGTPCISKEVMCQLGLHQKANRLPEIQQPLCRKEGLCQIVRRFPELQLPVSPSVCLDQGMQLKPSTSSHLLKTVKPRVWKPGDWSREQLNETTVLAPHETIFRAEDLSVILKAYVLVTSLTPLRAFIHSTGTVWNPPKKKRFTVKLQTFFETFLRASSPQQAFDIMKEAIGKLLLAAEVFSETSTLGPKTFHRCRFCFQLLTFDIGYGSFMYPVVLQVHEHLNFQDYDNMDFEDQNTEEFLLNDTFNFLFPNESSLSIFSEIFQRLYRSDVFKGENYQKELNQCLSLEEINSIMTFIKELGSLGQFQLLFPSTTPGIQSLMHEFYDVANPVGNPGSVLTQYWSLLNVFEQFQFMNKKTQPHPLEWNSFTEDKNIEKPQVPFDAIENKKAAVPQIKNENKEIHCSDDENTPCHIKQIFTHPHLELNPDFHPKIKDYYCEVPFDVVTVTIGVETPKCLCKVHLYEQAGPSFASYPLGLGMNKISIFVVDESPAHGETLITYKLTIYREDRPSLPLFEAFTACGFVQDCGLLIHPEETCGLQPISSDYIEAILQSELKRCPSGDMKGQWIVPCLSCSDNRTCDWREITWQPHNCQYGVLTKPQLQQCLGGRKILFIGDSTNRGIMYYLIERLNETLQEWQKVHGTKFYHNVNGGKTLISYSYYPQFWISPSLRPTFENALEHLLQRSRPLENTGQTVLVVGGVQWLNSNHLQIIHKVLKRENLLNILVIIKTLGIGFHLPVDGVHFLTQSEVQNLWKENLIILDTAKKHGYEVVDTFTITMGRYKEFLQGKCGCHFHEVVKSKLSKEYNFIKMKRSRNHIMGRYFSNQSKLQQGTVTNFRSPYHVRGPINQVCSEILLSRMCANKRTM
UniProt O75629: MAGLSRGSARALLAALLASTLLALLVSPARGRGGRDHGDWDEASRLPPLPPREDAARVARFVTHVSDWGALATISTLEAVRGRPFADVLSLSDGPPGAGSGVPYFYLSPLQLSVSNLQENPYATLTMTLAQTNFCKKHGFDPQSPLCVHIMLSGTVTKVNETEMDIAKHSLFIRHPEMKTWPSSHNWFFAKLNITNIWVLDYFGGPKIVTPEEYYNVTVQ
UniProt Q5HYK3: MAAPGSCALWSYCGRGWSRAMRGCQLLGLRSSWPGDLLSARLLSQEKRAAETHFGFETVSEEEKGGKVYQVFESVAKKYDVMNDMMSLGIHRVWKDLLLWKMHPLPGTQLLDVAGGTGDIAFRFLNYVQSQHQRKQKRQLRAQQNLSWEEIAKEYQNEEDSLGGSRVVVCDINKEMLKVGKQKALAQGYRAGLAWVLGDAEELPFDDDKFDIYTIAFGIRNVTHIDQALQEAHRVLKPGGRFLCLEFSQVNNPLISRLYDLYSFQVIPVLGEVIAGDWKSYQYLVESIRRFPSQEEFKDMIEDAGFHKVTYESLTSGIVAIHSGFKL
UniProt Q17RY0: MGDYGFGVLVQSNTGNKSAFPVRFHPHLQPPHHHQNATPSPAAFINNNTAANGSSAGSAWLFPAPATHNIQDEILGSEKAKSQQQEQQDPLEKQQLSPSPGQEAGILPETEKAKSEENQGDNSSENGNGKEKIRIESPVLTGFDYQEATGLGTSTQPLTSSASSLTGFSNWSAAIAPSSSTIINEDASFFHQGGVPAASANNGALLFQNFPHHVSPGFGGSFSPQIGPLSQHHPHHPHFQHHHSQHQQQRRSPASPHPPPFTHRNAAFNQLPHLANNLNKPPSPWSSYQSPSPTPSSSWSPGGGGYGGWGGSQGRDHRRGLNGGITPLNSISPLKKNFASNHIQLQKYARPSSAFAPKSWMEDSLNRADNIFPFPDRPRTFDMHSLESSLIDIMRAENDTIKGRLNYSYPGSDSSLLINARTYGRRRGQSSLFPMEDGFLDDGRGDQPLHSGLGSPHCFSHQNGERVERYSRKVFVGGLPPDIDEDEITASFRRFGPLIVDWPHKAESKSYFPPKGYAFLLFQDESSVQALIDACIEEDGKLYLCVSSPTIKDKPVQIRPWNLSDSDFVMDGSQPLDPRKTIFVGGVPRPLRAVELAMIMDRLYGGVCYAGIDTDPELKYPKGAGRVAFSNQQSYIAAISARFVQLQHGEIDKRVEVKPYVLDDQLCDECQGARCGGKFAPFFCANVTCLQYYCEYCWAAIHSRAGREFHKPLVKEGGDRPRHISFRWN
UniProt Q9Y678: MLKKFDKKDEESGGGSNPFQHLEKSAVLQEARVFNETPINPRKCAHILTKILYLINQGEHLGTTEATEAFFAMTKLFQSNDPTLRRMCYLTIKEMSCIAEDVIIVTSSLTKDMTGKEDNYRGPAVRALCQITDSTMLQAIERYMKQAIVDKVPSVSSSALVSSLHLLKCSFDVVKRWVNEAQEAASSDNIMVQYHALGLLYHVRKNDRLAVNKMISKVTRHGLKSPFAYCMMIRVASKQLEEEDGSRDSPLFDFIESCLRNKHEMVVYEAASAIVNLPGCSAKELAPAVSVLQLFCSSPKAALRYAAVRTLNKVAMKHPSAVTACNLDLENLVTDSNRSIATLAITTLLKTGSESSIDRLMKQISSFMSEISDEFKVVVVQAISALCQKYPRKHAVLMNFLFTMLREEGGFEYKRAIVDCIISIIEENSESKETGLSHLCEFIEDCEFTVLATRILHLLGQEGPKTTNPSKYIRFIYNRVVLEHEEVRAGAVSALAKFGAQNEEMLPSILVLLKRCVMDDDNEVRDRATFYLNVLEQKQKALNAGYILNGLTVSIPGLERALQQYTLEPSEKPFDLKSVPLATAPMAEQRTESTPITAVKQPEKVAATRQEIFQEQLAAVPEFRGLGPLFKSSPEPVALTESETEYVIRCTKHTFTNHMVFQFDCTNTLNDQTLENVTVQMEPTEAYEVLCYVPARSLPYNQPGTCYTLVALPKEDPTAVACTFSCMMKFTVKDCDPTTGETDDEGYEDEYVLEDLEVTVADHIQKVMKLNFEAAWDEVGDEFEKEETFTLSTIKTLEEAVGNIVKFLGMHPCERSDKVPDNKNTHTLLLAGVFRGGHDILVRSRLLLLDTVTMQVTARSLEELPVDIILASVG
UniProt Q9NZJ6: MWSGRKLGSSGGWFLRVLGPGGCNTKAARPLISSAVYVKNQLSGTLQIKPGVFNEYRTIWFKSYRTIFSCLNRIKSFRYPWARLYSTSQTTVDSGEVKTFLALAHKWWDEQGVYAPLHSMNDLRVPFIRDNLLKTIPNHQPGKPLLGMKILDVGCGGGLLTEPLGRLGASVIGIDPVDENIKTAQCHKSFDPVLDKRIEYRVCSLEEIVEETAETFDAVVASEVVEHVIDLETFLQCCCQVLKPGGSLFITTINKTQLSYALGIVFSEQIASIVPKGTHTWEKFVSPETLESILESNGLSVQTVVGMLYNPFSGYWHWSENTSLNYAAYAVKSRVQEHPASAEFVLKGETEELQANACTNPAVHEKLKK
UniProt Q86VX2, whole entry, looked up: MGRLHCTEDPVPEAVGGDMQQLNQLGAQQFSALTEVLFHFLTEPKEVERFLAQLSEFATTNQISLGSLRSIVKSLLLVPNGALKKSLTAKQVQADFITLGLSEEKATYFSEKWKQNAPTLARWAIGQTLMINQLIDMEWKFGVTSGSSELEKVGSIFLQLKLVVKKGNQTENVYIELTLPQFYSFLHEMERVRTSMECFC
UniProt Q9H9Q2: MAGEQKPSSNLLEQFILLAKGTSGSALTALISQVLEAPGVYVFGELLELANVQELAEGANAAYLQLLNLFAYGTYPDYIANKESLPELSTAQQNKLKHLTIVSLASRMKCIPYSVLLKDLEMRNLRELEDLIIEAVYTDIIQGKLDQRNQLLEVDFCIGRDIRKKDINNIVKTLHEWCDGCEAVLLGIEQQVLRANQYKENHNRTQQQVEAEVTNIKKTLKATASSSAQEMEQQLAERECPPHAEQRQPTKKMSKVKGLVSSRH

[2] = compound: CC1=C(SC2=C1C(=N[C@H](C3=NN=C(N32)C)CC(=O)N)C4=CC=C(C=C4)Cl)C
Method in brief: as §1

[3] = compound: CC1=C2C(=CC=C1)N=C(N(C2=O)C3=CC=CC=C3C)CN4C=NC5=C(N=CN=C54)N
Method in brief: as §1

[4] = compound: Cc1sc2c(c1C)C(c1ccc(Cl)cc1)=N[C@@H](CC(=O)OC(C)(C)C)c1nnc(C)n1-2
Method in brief: as §1

[5] = compound: c1ccc([C@@H]2C[C@H]2NC2CCNCC2)cc1
Method in brief: as §1

Measured: log2 fold change

CPSF4 (UniProt O95639)
inactive: [1] 0.351

COX6C (UniProt P09669)
inactive: [1] -0.023 | [2] 0.022 | [3] 0.012 | [4] -0.035 | [5] -0.026

COPB1 (UniProt P53618)
inactive: [1] -0.018 | [2] 0.036 | [3] 0.017 | [4] -0.013 | [5] -0.001

COMMD4 (UniProt Q9H0A8)
inactive: [1] -0.035 | [2] -0.05 | [3] 0.026 | [4] -0.019 | [5] -0.035

COL6A1 (UniProt P12109)
inactive: [1] 0 | [2] 0.096 | [3] 0.138 | [4] 0.032 | [5] -0.035

COX15 (UniProt Q7KZN9)
inactive: [1] -0.027 | [2] 0.071 | [3] 0.036 | [4] -0.013 | [5] -0.02

CRYZL1 (UniProt O95825)
inactive: [1] 0.01 | [2] -0.002 | [3] 0.016 | [4] 0.023 | [5] 0.027

COX7B (UniProt P24311)
inactive: [1] -0.003 | [2] 0.001 | [3] 0.063 | [4] -0.018 | [5] 0.018

CPNE3 (UniProt O75131)
inactive: [1] -0.02 | [2] -0.031 | [3] -0.021 | [4] 0.01 | [5] 0.061

CORO1C isoform 3 (UniProt Q9ULV4)
inactive: [1] 0.002 | [2] -0.013 | [3] -0.011 | [4] 0.003 | [5] -0.001

CPED1 (UniProt A4D0V7)
inactive: [1] 0.023 | [2] -0.036 | [3] 0.039 | [4] 0.004 | [5] 0.04

CROCCP2 (UniProt Q86T23)
inactive: [1] -0.452

COMMD5 (UniProt Q9GZQ3)
inactive: [1] -0.02 | [2] 0.09 | [3] -0.059 | [4] -0.067 | [5] -0.011

CREG1 (UniProt O75629)
inactive: [1] 0.09 | [2] 0.027 | [3] 0.107 | [4] -0.049 | [5] -0.014

CS (UniProt O75390)
inactive: [1] -0.043 | [2] 0.089 | [3] 0.053 | [4] -0.015 | [5] -0.016

COX11 (UniProt Q9Y6N1)
inactive: [1] 0.037 | [2] 0.074 | [3] 0.026 | [4] -0.082 | [5] 0.088

CORO2A (UniProt Q92828)
inactive: [1] -0.057 | [2] -0.041 | [3] 0.061 | [4] 0.045 | [5] 0.071

COQ5 (UniProt Q5HYK3)
inactive: [1] 0.008 | [2] 0.049 | [3] 0.064 | [4] 0.072 | [5] -0.016

CPEB4 (UniProt Q17RY0)
inactive: [1] 0.011 | [2] -0.069 | [3] -0.113 | [4] 0.016 | [5] -0.039

COPG1 (UniProt Q9Y678)
inactive: [1] -0.008 | [2] 0.005 | [3] 0.031 | [4] -0.013 | [5] -0.024

Retrieved one by one from above, two records:
COQ5 (UniProt Q5HYK3)
inactive: [1] 0.008 | [2] 0.049 | [3] 0.064 | [4] 0.072 | [5] -0.016

COPG1 (UniProt Q9Y678)
inactive: [1] -0.008 | [2] 0.005 | [3] 0.031 | [4] -0.013 | [5] -0.024

Next results

CSNK1A1 isoform 3 (UniProt P48729)
inactive: [1] -0.061

CSNK1G1 (UniProt Q9HCP0)
inactive: [1] 0.006

COQ3 (UniProt Q9NZJ6)
inactive: [1] -0.023 | [2] 0.135 | [3] 0.028 | [4] -0.167 | [5] 0.07

CSDE1 isoform 4 (UniProt O75534)
inactive: [1] 0.003 | [2] -0.088 | [3] -0.001 | [4] 0.194 | [5] 0.021

COMMD7 (UniProt Q86VX2)
inactive: [1] 0.021 | [2] -0.007 | [3] 0.069 | [4] 0.031 | [5] 0.021

COPS7B (UniProt Q9H9Q2)
inactive: [1] 0.003 | [2] -0.026 | [3] -0.032 | [4] 0.04 | [5] -0.1

COX10 (UniProt Q12887)
inactive: [1] 0.018 | [2] 0.025 | [3] -0.021 | [4] 0.019 | [5] 0.053

Reference: the supplement of paper PMC10849652
